No constants are given. Whether binding was seen depends on the method and setting. For part of these data: In cells and extracts the contact can be indirect. Some results given as binding are weak or reduced against the parent protein; the word gives no strength. Tags and fused reporters may be left off the sequences shown.
T1: GST-fusion protein containing the SRF-1 domain (containing the MADS-box) of SRF (UniProt Q9JM73)
T1 sequence: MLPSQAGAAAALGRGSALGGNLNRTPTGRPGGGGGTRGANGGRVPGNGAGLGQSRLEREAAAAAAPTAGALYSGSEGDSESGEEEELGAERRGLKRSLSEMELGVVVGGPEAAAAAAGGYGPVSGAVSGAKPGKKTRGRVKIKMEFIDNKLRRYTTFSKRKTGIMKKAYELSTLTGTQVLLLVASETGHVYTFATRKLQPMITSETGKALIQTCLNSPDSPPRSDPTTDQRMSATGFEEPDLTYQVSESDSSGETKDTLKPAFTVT

Amino acid sequences for entries named in this document (tags omitted).
UniProt Q8VIM5: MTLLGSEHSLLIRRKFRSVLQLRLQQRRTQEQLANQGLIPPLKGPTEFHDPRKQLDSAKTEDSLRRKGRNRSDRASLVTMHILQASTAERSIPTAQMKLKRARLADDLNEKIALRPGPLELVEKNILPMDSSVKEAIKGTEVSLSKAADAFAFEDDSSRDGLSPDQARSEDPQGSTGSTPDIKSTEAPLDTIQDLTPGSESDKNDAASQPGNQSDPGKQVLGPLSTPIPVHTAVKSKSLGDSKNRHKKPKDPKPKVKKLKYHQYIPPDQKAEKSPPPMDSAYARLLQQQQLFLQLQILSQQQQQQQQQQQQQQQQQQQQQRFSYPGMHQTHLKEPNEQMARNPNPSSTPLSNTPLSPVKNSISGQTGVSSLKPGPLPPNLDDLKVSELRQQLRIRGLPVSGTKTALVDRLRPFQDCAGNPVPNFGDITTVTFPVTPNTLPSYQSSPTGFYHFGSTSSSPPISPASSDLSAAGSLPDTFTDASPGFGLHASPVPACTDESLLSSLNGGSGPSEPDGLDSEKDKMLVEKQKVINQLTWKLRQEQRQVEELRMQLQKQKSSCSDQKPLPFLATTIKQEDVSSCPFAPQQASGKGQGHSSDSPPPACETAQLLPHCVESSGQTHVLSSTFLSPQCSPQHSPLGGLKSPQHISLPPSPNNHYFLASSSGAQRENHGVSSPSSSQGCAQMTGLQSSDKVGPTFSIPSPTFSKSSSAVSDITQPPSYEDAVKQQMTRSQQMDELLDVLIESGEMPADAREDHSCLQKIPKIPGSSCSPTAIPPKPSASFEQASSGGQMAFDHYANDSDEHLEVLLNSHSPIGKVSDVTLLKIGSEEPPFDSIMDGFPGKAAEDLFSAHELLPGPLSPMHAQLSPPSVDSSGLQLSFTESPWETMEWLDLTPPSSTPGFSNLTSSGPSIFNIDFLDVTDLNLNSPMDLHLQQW

T2: GST-fusion protein containing full-length SRF (GST-SRF) (UniProt Q9JM73)
T2 sequence: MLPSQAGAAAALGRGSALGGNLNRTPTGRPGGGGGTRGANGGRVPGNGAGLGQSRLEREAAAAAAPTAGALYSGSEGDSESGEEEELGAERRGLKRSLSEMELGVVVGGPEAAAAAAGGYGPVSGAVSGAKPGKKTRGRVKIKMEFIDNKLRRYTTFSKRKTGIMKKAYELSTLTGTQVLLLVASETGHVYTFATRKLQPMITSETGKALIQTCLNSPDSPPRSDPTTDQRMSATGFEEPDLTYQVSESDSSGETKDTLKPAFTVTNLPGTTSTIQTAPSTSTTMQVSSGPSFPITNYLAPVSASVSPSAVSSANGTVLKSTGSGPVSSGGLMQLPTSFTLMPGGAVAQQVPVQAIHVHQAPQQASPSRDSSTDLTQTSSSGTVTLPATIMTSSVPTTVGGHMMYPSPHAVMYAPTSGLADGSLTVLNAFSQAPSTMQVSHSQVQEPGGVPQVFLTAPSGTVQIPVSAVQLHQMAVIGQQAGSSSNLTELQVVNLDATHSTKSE


Tests used:
[1] = biological target: T1, GST-fusion protein containing the SRF-1 domain (containing the MADS-box) of SRF; assay: pull-down; GST pull-down of MYOCD with the MADS domain of SRF (Supplementary Fig. S6A)
[2] = biological target: T2, GST-fusion protein containing full-length SRF (GST-SRF); assay: pull-down; GST-fusion proteins of SRF (full length, SRF-1, SRF-2) with His-SND1; both purified
[3] = biological target: T1, GST-fusion protein containing the SRF-1 domain (containing the MADS-box) of SRF; assay: as above

binding [1] | binding [2] | binding [3] | Molecule
binds | – | – | Myocardin (MYOCD) used in the GST pull-down (from UniProt Q8VIM5 1-935)
– | binds | binds | His-SND1 (protein, UniProt Q78PY7 1-910) MASSAQSSGSSGGPAVPTVQRGIVKMVLSGCAIIVRGQPRGGPPPERQINLSNIRAGNLARRAAATQPDGKDTPDEPWAFPAREFLRKKLIGKEVCFTIENKTPQGREYGMIYLGKDTNGENIAESLVAEGLATRREGMRANNPEQNRLSECEEQAKASKKGMWSEGNGSHTIRDLKYTIENPRHFVDSHHQKPVNAIIEHVRDGSVVRALLLPGHHLVTVMLSGIKCPTFRRETDGSETPEPFAAEAKFFTESRLLQRDVQIILESCHNQNLLGTILHPNGNITELLLKEGFARCVDWSIAVYTRGAEKLRAAERFAKERRLRIWRDYVPPTANLDQKDKQFVAKVMQVLNADAIVVKLNSGDYKTIHLSSIRPPRLEGDNIQDKNKKLRPLYDIPYMFEAREFLRKKLIGKKVNVTVDYIRPASPATETVPAFSERTCATVTIGGINIAEALVSKGLATVIRYRQDDDQRSSHYDELLAAEARAIKNGKGLHSKKEVPIHRVADISGDTQKAKQFLPFLQRAGRSEAVVEYVFSGSRLKLYLPKETCLITFLLAGIECPRGARNLPGLVQEGEPFSEEATLFTKELVLQREVEVEVESMDKAGNFIGWLHMDGANLSVLLVEQALSKVHFTAERSAYYKPLLSAEEAAKQRKEKVWAHYEERPVEEVMPVLEEKERSASYKPVFVTEITDDLHFYVQDVETGTQLEKLMENMRNDISSHPPVEGSYAPRRGEFCIAKFVDGEWYRARVEKVESPAKVHVFYIDYGNREILPSTRLGTLPPAFSTRVLPAQATEYAFAFIQVPQDEDARTDAVDSVVRDIQNTQCLLNVEHLSASCPHVTLQFADSKGDVGLGLVKEGLVMVEVRKEKQFQKVITEYLNAQESAKSARLNLWRYGDFRADDADEFGYSR
